Measurements published in the supplement of paper PMC10849652.
Some of the results follow.

Amino acid sequences for entries named in this document (tags omitted). A change or cut given only in a name is not applied to a line headed by its entry.
UniProt Q9H7H0: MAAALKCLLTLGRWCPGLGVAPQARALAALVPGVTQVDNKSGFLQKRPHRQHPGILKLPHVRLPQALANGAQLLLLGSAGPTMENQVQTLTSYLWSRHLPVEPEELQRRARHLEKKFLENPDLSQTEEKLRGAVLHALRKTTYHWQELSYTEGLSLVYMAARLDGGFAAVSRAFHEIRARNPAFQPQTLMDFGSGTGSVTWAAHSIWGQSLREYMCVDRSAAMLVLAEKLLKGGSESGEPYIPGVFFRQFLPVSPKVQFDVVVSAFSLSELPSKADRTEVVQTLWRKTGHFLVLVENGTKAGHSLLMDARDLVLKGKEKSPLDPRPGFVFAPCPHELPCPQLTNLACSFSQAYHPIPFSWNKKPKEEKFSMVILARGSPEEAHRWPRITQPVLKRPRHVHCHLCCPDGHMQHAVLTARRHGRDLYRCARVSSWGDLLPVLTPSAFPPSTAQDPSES
UniProt O95402: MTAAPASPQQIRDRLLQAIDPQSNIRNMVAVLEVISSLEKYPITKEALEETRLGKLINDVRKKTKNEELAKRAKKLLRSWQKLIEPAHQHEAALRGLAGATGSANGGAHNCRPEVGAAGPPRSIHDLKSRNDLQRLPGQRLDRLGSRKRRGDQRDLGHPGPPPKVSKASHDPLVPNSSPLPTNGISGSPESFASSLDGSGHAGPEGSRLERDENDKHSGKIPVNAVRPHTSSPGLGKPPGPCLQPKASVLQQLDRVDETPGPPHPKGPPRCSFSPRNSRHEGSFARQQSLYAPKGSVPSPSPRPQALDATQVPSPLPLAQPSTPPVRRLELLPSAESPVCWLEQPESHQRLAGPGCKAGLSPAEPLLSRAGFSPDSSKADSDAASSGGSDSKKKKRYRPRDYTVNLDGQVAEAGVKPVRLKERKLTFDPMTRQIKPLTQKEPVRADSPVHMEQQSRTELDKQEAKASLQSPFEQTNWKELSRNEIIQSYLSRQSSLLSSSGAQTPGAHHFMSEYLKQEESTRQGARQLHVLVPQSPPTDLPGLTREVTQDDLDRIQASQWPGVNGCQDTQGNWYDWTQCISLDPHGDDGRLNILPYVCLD
UniProt Q9H204: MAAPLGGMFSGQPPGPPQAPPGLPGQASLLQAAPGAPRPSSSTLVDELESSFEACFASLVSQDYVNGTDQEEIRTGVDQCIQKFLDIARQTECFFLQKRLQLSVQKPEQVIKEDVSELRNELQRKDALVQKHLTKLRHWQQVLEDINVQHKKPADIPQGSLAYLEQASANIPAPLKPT
UniProt Q9Y6X3: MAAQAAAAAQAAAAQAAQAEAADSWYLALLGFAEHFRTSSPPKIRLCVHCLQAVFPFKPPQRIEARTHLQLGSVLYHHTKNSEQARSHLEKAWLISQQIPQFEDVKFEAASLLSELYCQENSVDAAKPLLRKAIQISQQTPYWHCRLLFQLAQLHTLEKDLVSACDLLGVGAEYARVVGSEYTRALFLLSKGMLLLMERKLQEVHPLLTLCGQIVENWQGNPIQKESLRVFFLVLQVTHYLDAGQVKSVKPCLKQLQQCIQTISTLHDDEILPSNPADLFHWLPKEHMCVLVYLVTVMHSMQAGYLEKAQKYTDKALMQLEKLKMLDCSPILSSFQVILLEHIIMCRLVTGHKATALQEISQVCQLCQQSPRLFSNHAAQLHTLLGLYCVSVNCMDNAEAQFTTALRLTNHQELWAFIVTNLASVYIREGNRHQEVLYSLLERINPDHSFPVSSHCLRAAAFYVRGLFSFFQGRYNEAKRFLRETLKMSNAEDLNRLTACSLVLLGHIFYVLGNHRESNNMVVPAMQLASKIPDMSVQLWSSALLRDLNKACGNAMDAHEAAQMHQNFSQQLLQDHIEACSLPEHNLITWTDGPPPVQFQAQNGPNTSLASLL
UniProt Q9UBB5, whole entry, looked up: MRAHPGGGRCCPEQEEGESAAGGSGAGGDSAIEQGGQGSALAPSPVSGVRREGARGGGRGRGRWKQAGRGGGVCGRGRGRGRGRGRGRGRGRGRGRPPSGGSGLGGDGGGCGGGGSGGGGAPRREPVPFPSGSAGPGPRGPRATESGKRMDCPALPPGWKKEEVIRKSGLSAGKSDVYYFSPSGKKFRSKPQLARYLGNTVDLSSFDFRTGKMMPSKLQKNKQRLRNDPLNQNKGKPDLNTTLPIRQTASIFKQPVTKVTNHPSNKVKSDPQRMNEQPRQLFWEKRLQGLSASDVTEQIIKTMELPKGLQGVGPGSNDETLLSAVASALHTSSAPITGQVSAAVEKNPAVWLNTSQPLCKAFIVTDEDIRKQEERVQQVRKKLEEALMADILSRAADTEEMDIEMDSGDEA
UniProt Q15528: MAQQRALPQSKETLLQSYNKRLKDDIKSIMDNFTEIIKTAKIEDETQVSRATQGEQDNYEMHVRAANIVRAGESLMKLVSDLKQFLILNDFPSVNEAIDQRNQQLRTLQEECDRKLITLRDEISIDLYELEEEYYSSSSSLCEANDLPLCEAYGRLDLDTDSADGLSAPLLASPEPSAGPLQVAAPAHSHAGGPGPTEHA
UniProt Q71SY5: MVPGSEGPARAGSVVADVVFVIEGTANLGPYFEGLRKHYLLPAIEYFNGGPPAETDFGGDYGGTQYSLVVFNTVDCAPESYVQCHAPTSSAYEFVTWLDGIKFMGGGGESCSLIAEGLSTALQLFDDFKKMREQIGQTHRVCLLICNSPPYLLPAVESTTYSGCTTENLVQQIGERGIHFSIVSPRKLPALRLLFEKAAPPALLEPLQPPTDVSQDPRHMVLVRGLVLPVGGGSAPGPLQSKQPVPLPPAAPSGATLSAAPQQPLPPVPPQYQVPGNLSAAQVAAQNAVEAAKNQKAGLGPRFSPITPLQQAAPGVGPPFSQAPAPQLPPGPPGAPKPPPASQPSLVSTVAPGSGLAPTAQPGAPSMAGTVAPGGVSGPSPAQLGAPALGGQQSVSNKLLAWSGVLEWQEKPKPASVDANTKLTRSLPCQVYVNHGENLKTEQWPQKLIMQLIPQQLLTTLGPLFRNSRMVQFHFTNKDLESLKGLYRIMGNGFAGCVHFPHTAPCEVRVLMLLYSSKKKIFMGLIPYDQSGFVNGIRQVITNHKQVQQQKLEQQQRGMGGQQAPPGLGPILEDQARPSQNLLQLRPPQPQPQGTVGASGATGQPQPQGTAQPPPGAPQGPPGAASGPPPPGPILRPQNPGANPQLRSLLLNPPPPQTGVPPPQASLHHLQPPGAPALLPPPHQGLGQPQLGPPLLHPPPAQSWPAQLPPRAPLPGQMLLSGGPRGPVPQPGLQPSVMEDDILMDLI
UniProt Q14676: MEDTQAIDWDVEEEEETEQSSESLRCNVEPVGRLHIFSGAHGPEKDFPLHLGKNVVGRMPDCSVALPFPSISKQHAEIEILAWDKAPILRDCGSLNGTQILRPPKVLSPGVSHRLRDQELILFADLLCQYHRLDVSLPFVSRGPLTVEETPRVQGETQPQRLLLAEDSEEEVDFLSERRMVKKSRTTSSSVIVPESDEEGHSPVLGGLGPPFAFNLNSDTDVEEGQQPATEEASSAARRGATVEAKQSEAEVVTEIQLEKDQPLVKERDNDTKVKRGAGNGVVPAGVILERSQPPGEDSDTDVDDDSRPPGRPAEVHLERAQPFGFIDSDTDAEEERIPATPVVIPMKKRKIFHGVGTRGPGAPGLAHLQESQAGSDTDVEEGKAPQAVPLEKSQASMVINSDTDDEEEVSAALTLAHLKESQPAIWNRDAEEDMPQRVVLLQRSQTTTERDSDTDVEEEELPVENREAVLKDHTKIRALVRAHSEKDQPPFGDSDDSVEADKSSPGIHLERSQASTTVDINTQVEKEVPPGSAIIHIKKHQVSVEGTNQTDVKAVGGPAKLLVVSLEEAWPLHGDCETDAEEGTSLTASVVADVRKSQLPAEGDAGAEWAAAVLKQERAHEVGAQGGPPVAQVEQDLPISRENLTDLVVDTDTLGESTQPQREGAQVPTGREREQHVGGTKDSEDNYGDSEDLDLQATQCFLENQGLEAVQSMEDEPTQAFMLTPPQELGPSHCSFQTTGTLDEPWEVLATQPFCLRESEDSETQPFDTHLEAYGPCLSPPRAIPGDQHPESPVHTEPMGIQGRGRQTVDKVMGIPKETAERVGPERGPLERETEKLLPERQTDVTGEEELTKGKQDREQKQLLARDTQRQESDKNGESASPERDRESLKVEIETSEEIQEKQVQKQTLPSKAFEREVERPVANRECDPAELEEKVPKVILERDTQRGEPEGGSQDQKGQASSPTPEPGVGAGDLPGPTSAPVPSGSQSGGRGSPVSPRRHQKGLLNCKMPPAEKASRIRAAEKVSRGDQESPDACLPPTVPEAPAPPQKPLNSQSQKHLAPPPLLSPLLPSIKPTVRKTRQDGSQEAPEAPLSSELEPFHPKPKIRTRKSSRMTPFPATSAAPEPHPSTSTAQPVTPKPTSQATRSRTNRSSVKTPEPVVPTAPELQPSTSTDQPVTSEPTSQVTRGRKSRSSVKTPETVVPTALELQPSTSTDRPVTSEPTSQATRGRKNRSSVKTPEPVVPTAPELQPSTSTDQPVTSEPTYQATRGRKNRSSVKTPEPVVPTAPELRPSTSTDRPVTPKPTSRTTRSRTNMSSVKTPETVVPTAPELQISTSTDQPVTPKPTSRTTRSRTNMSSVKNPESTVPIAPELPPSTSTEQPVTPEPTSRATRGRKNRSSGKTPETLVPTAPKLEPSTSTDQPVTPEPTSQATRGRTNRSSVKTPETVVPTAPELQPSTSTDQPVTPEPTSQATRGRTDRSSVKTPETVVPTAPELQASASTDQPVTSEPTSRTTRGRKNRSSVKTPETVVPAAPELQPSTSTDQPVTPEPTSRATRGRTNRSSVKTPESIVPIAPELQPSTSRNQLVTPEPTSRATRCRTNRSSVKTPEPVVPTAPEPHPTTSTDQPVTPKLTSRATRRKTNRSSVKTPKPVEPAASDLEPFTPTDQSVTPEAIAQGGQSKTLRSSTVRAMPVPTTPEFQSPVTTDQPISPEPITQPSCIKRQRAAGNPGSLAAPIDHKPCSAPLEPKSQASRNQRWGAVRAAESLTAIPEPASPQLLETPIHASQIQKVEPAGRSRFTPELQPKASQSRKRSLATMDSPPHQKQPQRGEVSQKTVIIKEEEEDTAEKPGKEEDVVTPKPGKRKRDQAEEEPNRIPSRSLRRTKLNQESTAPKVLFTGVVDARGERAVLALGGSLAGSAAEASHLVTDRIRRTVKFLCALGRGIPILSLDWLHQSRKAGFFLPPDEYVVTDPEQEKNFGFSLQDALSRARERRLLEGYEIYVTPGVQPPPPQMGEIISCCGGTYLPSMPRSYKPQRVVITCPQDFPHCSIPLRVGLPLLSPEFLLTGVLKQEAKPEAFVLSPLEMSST
UniProt O43513: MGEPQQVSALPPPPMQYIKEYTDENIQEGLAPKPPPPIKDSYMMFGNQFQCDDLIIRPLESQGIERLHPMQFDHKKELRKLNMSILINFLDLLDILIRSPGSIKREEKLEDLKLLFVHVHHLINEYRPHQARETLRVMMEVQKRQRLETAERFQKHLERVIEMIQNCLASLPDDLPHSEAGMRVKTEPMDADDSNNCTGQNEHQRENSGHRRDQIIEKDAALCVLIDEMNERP
UniProt Q96PE7: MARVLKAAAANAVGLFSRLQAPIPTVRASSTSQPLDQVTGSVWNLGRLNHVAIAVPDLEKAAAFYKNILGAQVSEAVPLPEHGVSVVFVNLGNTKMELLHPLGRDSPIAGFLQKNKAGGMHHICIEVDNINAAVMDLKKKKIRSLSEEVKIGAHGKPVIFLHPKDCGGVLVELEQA
UniProt Q6UB28: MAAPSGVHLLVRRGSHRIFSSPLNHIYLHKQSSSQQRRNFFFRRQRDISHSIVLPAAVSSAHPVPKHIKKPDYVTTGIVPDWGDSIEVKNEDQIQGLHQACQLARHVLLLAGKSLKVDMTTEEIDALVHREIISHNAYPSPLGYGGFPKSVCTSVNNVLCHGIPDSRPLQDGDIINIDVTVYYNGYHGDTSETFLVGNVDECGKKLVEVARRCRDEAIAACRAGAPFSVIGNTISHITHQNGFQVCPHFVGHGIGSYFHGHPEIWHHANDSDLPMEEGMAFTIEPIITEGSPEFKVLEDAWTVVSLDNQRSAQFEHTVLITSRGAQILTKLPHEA
UniProt P42679: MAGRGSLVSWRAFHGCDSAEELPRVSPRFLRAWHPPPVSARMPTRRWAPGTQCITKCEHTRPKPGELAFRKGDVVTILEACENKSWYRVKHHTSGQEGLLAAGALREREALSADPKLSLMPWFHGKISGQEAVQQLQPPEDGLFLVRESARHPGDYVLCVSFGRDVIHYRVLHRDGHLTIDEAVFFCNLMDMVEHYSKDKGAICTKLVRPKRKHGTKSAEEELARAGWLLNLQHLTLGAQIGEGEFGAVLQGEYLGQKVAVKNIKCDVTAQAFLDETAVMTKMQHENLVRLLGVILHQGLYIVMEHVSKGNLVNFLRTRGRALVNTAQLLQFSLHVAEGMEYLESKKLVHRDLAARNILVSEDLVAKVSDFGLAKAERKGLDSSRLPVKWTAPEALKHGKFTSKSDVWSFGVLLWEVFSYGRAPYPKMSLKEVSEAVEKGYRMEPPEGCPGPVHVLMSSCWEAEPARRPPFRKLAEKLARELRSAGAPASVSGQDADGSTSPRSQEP

Tests used:
Assay in all cases: log2 fold change, soluble protein after heating vs DMSO (PISA); higher = thermal stabilisation; K562 cells, 10 uM, 30 min; active = over 0.2 and 3.5 SD of the protein, either way, in both replicates (recomputed)
[1] = compound: CC1=C(C=C(C=C1)NC(=O)C2=CC(=CC=C2)C(C)(C)C#N)NC3=CC4=C(C=C3)N=CN(C4=O)C
In short: (§1)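 Soluble protein was quantified by TMTpro 16plex LC-MS/MS after channel sums were equalised. It was obtained as the supernatant after 21,000xg for 90 min from pooled aliquots of K562 cells (2×10^6 cells/mL, 10 μM compound, 30 min) heated for 3 min across 48°C-58°C and extracted in PBS with 0.5% NP-40 at 4°C. Thermal stability values are relative to control samples and come from duplicates. They are given as log2 fold changes.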

[2] = compound: CC1=C(C=C(C=C1)NC(=O)C2=CC(=CC=C2)N(C)C)NC(=O)C3=CC=C(C=C3)O
In short: as §1

[3] = compound: CC1=CC=C(C=C1)SC2=C3C=C(SC3=CN=C2)C(=O)N
In short: as §1

[4] = compound: CCCS(=O)(=O)Nc1ccc(F)c(C(=O)c2c[nH]c3ncc(Cl)cc23)c1F
In short: as §1

[5] = compound: CCCc1cc(C)[nH]c(=O)c1CNC(=O)c1cc(-c2ccnc(N3CCN(C)CC3)c2)cc2c1cnn2C(C)C
In short: as §1

[6] = compound: CC[C@@H]1C(=O)N(C)c2cnc(Nc3ccc(C(=O)NC4CCN(C)CC4)cc3OC)nc2N1C1CCCC1
In short: as §1

volasertib = compound: CC[C@@H]1C(=O)N(C)c2cnc(Nc3ccc(C(=O)N[C@H]4CC[C@H](N5CCN(CC6CC6)CC5)CC4)cc3OC)nc2N1C(C)C [volasertib]
In short: as §1

[7] = compound: CC1=NC(=CC=C1)C2=C(N=C(N2)C(C)(C)C)C3=CC4=NC=CN=C4C=C3
In short: as §1

vemurafenib = compound: CCCS(=O)(=O)Nc1ccc(F)c(C(=O)c2c[nH]c3ncc(-c4ccc(Cl)cc4)cc23)c1F [vemurafenib]
In short: as §1

[8] = compound: CCn1cc(-c2ccnc3[nH]c(-c4cccc(CN(C)C)c4)cc23)c(-c2ccc(NC(=O)N(C)C)cc2)n1
In short: as §1

[9] = compound: CN(C)CC(=O)Nc1ccc2[nH]c(=O)c3ccccc3c2c1
In short: as §1

[10] = compound: CN1C2=C(C3=C1C(=O)N(N=C3)CC4=CC(=CC=C4)N)SC(=C2)S(=O)C
In short: as §1

[11] = compound: CN1CCC(CNc2ccc3ncc(-c4cccc(OC(F)(F)F)c4)n3n2)CC1
In short: as §1

givinostat = compound: CCN(CC)Cc1ccc2cc(COC(=O)Nc3ccc(C(=O)NO)cc3)ccc2c1 [givinostat]
In short: as §1

barasertib = compound: CCN(CCCOc1ccc2c(Nc3cc(CC(=O)Nc4cccc(F)c4)[nH]n3)ncnc2c1)CCOP(=O)(O)O [barasertib]
In short: as §1

[12] = compound: CC[C@H](C)N1C=C(C2=C(C=C(C=C21)C3=CN=C(C=C3)N4CCNCC4)C(=O)NCC5=C(C=C(NC5=O)C)C)C
In short: as §1

[13] = compound: CCn1c(C(=O)N(C2CC2)C2CC2)cc2c3c(ncn3C)c(Nc3cc(C)n(C)n3)nc21
In short: as §1

rosiglitazone = compound: CN(CCOC1=CC=C(C=C1)C[C@H]2C(=O)NC(=O)S2)C3=CC=CC=N3 (racemic) [rosiglitazone]
In short: as §1

Nexturastat A = compound: CCCCN(Cc1ccc(C(=O)NO)cc1)C(=O)Nc1ccccc1 [Nexturastat A]
In short: as §1

epoxomicin = compound: CC[C@H](C)[C@@H](C(=O)N[C@@H]([C@@H](C)O)C(=O)N[C@@H](CC(C)C)C(=O)[C@]1(CO1)C)NC(=O)[C@H]([C@@H](C)CC)N(C)C(=O)C [epoxomicin]
In short: as §1

Measured: log2 fold change

METTL17 isoform 3 (UniProt Q9H7H0)
inactive: [1] 0.344 | [2] -0.016 | [3] -0.135 | [4] -0.08 | [5] 0.105 | [6] 0.068 | volasertib 0.03

MED26 (UniProt O95402)
inactive: [1] -0.024 | [2] 0.123 | [3] 0.051 | [7] -0.105 | vemurafenib -0.016 | [4] -0.11 | volasertib 0.041 | [8] 0.188 | [9] -0.073 | [10] 0.108 | [11] 0.115

MED28 (UniProt Q9H204)
inactive: [1] 0.004 | [2] -0.071 | [3] -0.087 | [4] 0.099 | [5] -0.009 | givinostat -0.144 | barasertib -0.006 | [6] 0.035 | volasertib -0.075 | [12] 0.049 | [13] 0.125 | [8] -0.145 | rosiglitazone -0.036 | [10] -0.01 | [11] 0.028

MAU2 (UniProt Q9Y6X3)
inactive: [1] -0.454 | [2] 0.013 | [3] 0.059 | vemurafenib 0.101 | [4] 0.031 | [5] -0.073 | givinostat 0.115 | volasertib -0.05 | [13] -0.033 | [8] 0.014 | [9] -0.015 | [11] -0.058

MBD2 (UniProt Q9UBB5)
inactive: [1] 0.069 | [2] 0.053 | [3] -0.011 | Nexturastat A 0.163 | vemurafenib 0.033 | [4] 0.068 | [5] 0.198 | givinostat 0.2 | barasertib -0.042 | volasertib -0.109 | [12] 0.019 | epoxomicin -0.155 | [13] -0.081 | [8] -0.126 | [9] -0.022 | rosiglitazone 0.022 | [10] 0.058 | [11] -0.083

MIB1 (UniProt Q86YT6)
inactive: [1] -0.125 | [2] -0.023 | [7] -0.178 | Nexturastat A 0.27 | vemurafenib 0.013 | [5] 0.339 | givinostat 0.198 | barasertib -0.022 | [6] -0.04 | epoxomicin 0.069 | [13] -0.076 | [8] 0.133 | [9] -0.059 | rosiglitazone 0 | [11] -0.258

MEPCE (UniProt Q7L2J0)
inactive: [1] 0.077 | [2] 0.025 | [3] -0.014 | [7] -0.252 | Nexturastat A -0.057 | vemurafenib 0.062 | [4] 0.083 | [5] 0.05 | givinostat -0.04 | barasertib 0.025 | [6] -0.07 | volasertib -0.209 | [12] 0.052 | epoxomicin -0.053 | [8] -0.013 | [9] 0.061 | [10] 0.007 | [11] -0.051

MATR3 (UniProt P43243)
inactive: [1] 0.006 | [2] -0.105 | [7] -0.011 | Nexturastat A 0.282 | vemurafenib -0.14 | [5] -1.19 | givinostat 0.174 | barasertib -0.092 | [6] -0.032 | [12] 0.09 | epoxomicin 0.093 | [13] -0.264 | [8] 0.11 | [9] -0.022 | rosiglitazone -0.151 | [10] 0.314 | [11] 0.099

MED22 (UniProt Q15528)
inactive: [1] -0.023 | [2] 0.034 | [7] 0.015 | Nexturastat A -0.033 | vemurafenib 0.043 | [5] 0.014 | givinostat 0.117 | barasertib 0.028 | [6] 0.133 | [12] 0.097 | epoxomicin 0.02 | [9] -0.019 | [10] -0.043

Two entries picked at random from the list so far, as already listed:
MAU2 (UniProt Q9Y6X3)
inactive: [1] -0.454 | [2] 0.013 | [3] 0.059 | vemurafenib 0.101 | [4] 0.031 | [5] -0.073 | givinostat 0.115 | volasertib -0.05 | [13] -0.033 | [8] 0.014 | [9] -0.015 | [11] -0.058

MBD2 (UniProt Q9UBB5)
inactive: [1] 0.069 | [2] 0.053 | [3] -0.011 | Nexturastat A 0.163 | vemurafenib 0.033 | [4] 0.068 | [5] 0.198 | givinostat 0.2 | barasertib -0.042 | volasertib -0.109 | [12] 0.019 | epoxomicin -0.155 | [13] -0.081 | [8] -0.126 | [9] -0.022 | rosiglitazone 0.022 | [10] 0.058 | [11] -0.083

Next records:

MED17 (UniProt Q9NVC6)
inactive: [1] 0.042 | [2] -0.03 | [3] -0.186 | [7] 0.005 | Nexturastat A 0.052 | vemurafenib 0.071 | [4] -0.168 | [5] 0.025 | givinostat -0.014 | [6] -0.011 | volasertib -0.021 | [12] -0.008 | epoxomicin -0.015 | [8] 0.08 | [9] 0.037 | [10] 0.036 | [11] -0.134

MED8 isoform 2 (UniProt Q96G25)
inactive: [1] -0.085 | [2] 0.038 | [3] -0.03 | [7] 0.089 | Nexturastat A 0.045 | [4] -0.027 | [5] 0.081 | givinostat -0.038 | barasertib -0.059 | [6] 0.027 | volasertib 0.1 | [12] 0.046 | epoxomicin -0.051 | [9] -0.075 | [10] 0.052
active: vemurafenib 0.36

MCM10 (UniProt Q7L590)
inactive: [1] 0.209 | [3] 0.166 | [7] 0.155 | Nexturastat A 0.028 | vemurafenib -0.016 | [4] 0.217 | [5] -0.037 | givinostat -0.065 | barasertib -0.012 | [6] -0.074 | volasertib 0 | [12] -0.034 | epoxomicin 0.148 | [8] -0.037 | [9] -0.023 | [11] 0.096

MFSD11 (UniProt O43934)
inactive: [1] -0.171 | [3] 0.038 | [7] 0.013 | Nexturastat A -0.097 | vemurafenib -0.012 | [4] 0.039 | [5] -0.02 | barasertib 0.013 | [6] -0.244 | volasertib 0.021 | [12] -0.108 | epoxomicin 0.03 | [8] 0.021 | [9] 0.017 | [10] -0.026
active: [11] -0.345

MED25 isoform 3 (UniProt Q71SY5)
inactive: [1] -0.033 | [2] 0.022 | [3] -0.012 | [7] -0.014 | vemurafenib 0.141 | [4] 0.05 | [5] -0.083 | givinostat 0.105 | barasertib 0.019 | [6] 0.057 | volasertib -0.051 | [12] 0.027 | [8] -0.203 | [9] 0.096 | [10] -0.155 | [11] -0.043

MDC1 (UniProt Q14676)
inactive: [1] -0.019 | [2] -0.037 | [3] -0.013 | [7] -0.076 | Nexturastat A 0.048 | vemurafenib -0.037 | [4] -0.008 | [5] 0.074 | givinostat 0.055 | barasertib -0.074 | [6] 0 | volasertib -0.074 | [12] -0.028 | epoxomicin 0.039 | [8] 0.384 | [9] 0.015 | [11] 0.069
active: [10] 0.527

MED7 (UniProt O43513)
inactive: [1] 0.049 | [2] -0.023 | [3] -0.009 | [7] 0.015 | Nexturastat A 0.212 | vemurafenib -0.021 | [4] -0.093 | givinostat -0.008 | barasertib -0.149 | volasertib 0.139 | [12] -0.287 | epoxomicin 0.127 | [9] 0.021 | [10] -0.172

MCEE (UniProt Q96PE7)
inactive: [1] -0.017 | [2] 0.014 | [3] 0.04 | Nexturastat A 0.014 | vemurafenib -0.178 | [4] -0.033 | [5] -0.016 | givinostat -0.024 | barasertib 0.004 | [6] 0 | volasertib 0.02 | [12] -0.026 | epoxomicin 0.096 | [13] 0.106 | [8] 0 | [9] 0.028 | rosiglitazone 0.025 | [10] -0.047 | [11] 0.05

METAP1D (UniProt Q6UB28)
inactive: [1] -0.022 | [2] 0.009 | [3] 0.047 | [7] -0.09 | Nexturastat A -0.087 | vemurafenib -0.032 | [4] -0.053 | [5] 0.056 | givinostat -0.054 | barasertib -0.074 | [6] 0.031 | volasertib -0.082 | [12] 0.051 | epoxomicin 0.074 | [9] -0.065 | [10] 0.052

MEIS2 (UniProt O14770)
inactive: [2] 0.017 | [3] -0.022 | [7] 0.076 | [4] 0.104 | givinostat 0.073 | barasertib -0.051 | volasertib -0.291 | [13] -0.097 | [8] -0.082 | rosiglitazone 0.14 | [10] 0.051 | [11] -0.279

MATK isoform 2 (UniProt P42679)
inactive: vemurafenib 0.074 | [12] -0.047 | [9] 0.169 | [10] -0.205

METTL26 (UniProt Q96S19)
inactive: [3] 0 | [4] 0.038 | [5] -0.017 | givinostat -0.024 | barasertib -0.349 | [6] -0.006 | volasertib -0.108 | [12] 0.024 | [13] -0.05 | rosiglitazone 0.066
